Amino acid sequences for entries named in this document (tags omitted). A change or cut given only in a name is not applied to a line headed by its entry.
UniProt Q8C6B2: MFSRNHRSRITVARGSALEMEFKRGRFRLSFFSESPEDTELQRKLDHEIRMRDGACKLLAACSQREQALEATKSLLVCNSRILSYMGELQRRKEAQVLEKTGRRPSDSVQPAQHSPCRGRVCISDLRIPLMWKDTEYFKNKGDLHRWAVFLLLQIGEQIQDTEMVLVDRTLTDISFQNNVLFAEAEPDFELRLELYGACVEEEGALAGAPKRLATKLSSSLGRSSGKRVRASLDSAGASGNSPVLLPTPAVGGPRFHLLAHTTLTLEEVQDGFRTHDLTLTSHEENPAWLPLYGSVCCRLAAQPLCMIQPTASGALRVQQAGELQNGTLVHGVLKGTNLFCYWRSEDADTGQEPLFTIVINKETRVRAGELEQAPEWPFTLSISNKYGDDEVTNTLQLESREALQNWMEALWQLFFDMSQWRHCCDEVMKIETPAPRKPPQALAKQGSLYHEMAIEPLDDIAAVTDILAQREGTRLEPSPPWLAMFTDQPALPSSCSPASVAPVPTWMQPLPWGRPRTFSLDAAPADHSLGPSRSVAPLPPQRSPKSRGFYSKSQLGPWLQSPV
UniProt Q9QUI0: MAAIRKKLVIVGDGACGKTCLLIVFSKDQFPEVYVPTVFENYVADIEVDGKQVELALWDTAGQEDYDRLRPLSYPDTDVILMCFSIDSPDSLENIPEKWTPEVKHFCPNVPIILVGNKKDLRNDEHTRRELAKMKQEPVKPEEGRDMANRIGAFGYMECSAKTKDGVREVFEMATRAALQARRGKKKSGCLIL

According to PMC2917412:

Target: GST-Rhotekin-RBD (GTP-dependent binding domain of Rhotekin) (UniProt Q8C6B2)
Experiment: pull-down; lysates of transiently transfected NIH3T3 cells (pcDNA3, tP2YR, Tiam1-C1199 or Ect2-DH/PH/C; grown 24 h in DMEM with 0.5% fetal calf serum) incubated with GST-PAK-RBD or GST-Rhotekin-RBD; only the target purified

## RhoA (activated, GTP-bound) (from UniProt Q9QUI0 1-193)
  binding: binds

No constants are given. Whether binding was seen depends on the method and setting. In cells and extracts the contact can be indirect. Binding can be weak; no strength is given.
